This passage reports binding results from paper PMC12049415.

Sequences of proteins named here, by UniProt entry; tags and fusion partners are left off.
UniProt Q13283: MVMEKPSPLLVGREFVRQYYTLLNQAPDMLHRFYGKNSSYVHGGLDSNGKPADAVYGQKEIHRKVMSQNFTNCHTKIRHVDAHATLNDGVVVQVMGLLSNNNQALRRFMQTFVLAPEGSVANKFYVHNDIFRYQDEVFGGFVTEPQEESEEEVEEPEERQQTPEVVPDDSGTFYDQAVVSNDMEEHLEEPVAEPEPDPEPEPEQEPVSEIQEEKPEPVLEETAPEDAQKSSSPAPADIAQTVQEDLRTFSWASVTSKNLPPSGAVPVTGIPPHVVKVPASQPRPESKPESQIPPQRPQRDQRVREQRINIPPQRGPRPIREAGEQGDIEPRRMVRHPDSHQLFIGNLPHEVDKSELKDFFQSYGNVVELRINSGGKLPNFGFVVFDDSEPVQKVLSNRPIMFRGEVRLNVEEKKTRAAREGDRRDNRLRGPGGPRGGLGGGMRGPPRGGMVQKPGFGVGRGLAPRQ
UniProt P49792: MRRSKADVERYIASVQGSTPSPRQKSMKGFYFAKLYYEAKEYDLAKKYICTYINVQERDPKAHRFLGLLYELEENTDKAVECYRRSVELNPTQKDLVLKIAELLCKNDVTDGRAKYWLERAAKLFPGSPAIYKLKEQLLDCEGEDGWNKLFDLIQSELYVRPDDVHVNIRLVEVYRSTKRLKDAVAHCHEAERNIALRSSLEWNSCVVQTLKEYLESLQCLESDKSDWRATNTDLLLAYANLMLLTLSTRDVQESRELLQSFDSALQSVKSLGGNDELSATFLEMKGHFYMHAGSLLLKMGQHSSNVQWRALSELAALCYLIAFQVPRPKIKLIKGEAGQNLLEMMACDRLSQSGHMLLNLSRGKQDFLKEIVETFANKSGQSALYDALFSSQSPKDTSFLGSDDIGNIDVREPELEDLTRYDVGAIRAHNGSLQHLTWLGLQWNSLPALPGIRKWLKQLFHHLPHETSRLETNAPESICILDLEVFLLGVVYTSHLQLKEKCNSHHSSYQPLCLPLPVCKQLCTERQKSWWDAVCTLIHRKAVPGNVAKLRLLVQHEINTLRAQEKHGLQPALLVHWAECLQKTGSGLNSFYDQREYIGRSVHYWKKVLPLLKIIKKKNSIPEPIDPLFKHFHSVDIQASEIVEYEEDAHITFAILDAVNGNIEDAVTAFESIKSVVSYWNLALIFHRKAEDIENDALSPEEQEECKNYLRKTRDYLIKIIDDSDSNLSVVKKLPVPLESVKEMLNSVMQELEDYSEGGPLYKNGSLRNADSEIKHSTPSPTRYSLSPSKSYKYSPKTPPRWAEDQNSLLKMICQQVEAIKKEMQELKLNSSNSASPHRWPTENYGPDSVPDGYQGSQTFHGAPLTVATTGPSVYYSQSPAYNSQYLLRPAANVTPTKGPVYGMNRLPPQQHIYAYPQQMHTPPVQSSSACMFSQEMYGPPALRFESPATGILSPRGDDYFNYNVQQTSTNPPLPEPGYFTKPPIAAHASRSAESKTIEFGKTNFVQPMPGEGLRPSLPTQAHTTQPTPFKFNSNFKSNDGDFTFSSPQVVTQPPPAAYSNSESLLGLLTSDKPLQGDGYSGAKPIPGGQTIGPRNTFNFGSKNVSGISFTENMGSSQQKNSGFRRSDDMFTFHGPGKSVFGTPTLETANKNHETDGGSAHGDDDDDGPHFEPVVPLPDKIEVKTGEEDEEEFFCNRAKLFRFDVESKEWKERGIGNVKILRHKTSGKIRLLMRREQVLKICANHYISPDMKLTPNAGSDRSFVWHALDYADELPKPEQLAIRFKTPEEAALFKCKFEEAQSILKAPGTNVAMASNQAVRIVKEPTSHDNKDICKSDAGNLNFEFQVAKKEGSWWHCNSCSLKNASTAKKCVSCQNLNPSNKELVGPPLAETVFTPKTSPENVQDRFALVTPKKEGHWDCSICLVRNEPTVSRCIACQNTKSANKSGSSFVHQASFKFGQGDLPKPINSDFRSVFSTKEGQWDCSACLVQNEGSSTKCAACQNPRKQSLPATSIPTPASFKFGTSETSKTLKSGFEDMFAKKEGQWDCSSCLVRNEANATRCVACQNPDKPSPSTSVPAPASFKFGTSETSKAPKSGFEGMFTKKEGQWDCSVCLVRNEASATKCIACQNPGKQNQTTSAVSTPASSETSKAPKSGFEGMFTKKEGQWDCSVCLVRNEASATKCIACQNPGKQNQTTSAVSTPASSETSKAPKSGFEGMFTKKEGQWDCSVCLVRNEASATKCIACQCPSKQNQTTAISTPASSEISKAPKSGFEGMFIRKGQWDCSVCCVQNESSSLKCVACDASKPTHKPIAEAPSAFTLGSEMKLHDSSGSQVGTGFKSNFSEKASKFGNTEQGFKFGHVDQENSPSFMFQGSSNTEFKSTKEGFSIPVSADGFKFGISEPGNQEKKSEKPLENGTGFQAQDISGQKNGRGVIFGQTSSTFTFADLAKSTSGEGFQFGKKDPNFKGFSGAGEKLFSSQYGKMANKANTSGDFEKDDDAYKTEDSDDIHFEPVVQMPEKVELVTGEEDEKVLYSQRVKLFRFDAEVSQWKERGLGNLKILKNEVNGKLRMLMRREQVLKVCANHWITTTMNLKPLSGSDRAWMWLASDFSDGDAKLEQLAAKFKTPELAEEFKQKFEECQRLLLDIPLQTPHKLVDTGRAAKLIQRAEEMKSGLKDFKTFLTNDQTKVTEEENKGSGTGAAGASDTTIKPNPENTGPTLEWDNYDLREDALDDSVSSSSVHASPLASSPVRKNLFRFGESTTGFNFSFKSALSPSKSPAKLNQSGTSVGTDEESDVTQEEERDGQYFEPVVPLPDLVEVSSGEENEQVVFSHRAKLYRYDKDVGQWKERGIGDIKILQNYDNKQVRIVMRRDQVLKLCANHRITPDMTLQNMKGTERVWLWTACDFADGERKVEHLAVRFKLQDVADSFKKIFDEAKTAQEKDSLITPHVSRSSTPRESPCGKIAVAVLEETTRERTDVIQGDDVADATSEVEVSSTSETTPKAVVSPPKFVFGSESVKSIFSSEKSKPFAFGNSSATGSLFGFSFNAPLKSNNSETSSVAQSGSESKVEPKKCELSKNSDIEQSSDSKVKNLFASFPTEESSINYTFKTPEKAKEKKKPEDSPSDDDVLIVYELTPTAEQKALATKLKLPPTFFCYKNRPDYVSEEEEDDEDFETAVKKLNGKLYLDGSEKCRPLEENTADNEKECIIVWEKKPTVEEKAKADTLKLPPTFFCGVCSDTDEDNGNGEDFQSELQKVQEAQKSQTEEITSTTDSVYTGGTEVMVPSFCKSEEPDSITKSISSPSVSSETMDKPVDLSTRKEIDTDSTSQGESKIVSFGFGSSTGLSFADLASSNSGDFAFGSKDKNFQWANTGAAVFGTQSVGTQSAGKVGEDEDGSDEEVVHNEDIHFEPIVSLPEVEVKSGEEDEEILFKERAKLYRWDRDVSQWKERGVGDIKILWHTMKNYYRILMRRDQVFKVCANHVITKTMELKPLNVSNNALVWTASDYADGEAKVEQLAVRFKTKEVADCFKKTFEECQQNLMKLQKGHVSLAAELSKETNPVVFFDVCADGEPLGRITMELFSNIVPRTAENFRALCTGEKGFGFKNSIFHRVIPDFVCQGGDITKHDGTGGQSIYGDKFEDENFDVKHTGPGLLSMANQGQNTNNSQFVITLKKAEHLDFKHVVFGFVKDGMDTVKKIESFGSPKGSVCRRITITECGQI

These are yes or no findings as the source states them, for the method shown. Binding seen in cells or lysates may run through a third protein. A yes stands for co-enrichment or nearness to the bait. Other partners may have been found.

This experiment has as its target G3BP stress granule assembly factor 1 (G3BP1), endogenous (human (endogenous in SK-N-SH and SH-SY5Y)) (UniProt Q13283). The experiment is described as follows: affinity purification with mass spectrometry; Co-IP from NB cells (bait TSPYL5, or bait G3BP1), SDS-PAGE bands digested with trypsin, LC-MS/MS (Orbitrap-Fusion).

Consider “RAN binding protein 2 (RanBP2), endogenous (from UniProt P49792 1-3224)”, for which the binding entry is given as “binds”.
